Publication PMC10102067 (Communications Biology, 2023)
The same purity stands for every peptide and may come from a single statement.

Assay: general procedure: peptide synthesis; PyBOP, DIPEA
Conditions: conjugation step, cyclic, sequence written open

Q: For Vanco-8C-Tz-DMACA, which “final purity (method not given)” value (UV @ 200 nm and ELSD) is on record?
A: > 95%

Q: And the conjugation yield?
A: 16%
